Assay results: the supplement of paper PMC12067093, “Discovery and optimisation of a covalent ligand for TRIM25 and its application to targeted protein ubiquitination” (Chemical Science, 2025)
The list shows a part of the results.

By UniProt entry, the sequences of proteins in these tests, tags left out. Where a name states a change or a piece, a line headed by the entry shows the natural chain unless it says otherwise.
UniProt O75381, whole entry, looked up: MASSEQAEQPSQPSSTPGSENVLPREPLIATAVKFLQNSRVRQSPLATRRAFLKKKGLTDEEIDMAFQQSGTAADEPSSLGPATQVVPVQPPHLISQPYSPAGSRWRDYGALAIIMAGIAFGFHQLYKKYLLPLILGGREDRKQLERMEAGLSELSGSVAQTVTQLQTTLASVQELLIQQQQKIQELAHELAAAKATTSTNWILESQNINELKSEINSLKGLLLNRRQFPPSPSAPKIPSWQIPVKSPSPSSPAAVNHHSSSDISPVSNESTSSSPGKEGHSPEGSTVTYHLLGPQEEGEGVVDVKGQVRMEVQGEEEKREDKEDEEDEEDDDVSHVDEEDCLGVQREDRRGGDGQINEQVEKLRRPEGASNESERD
UniProt O75928, whole entry, looked up: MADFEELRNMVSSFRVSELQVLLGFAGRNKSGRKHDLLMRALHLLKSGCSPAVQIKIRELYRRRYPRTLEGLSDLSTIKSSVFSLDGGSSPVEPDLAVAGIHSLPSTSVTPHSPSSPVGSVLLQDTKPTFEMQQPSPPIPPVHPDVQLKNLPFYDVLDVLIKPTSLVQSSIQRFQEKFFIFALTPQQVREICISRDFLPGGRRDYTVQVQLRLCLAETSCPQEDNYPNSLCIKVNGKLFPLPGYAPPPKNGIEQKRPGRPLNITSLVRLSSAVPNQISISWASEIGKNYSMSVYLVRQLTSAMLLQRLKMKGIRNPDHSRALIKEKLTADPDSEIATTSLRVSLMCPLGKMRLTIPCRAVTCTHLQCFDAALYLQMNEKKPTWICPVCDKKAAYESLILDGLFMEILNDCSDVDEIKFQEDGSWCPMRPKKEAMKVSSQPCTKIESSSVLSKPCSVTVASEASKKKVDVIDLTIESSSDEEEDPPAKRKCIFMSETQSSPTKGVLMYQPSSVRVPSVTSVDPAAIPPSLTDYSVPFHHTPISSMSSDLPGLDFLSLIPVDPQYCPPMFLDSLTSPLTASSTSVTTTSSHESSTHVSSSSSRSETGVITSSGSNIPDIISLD
UniProt Q14442: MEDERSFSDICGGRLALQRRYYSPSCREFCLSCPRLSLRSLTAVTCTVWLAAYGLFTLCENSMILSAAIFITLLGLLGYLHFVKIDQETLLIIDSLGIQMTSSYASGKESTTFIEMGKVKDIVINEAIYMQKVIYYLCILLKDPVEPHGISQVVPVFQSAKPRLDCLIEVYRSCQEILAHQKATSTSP
UniProt P53609, whole entry, looked up: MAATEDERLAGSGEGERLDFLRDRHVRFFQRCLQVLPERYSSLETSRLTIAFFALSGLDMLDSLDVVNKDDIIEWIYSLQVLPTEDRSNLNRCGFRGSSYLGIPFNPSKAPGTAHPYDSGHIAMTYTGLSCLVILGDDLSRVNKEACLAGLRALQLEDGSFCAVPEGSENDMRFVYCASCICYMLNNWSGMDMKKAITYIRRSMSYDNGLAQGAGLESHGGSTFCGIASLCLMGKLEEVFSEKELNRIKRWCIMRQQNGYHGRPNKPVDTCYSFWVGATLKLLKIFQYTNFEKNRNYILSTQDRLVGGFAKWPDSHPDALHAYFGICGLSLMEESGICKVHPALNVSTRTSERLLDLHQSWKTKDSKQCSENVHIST
UniProt O15067: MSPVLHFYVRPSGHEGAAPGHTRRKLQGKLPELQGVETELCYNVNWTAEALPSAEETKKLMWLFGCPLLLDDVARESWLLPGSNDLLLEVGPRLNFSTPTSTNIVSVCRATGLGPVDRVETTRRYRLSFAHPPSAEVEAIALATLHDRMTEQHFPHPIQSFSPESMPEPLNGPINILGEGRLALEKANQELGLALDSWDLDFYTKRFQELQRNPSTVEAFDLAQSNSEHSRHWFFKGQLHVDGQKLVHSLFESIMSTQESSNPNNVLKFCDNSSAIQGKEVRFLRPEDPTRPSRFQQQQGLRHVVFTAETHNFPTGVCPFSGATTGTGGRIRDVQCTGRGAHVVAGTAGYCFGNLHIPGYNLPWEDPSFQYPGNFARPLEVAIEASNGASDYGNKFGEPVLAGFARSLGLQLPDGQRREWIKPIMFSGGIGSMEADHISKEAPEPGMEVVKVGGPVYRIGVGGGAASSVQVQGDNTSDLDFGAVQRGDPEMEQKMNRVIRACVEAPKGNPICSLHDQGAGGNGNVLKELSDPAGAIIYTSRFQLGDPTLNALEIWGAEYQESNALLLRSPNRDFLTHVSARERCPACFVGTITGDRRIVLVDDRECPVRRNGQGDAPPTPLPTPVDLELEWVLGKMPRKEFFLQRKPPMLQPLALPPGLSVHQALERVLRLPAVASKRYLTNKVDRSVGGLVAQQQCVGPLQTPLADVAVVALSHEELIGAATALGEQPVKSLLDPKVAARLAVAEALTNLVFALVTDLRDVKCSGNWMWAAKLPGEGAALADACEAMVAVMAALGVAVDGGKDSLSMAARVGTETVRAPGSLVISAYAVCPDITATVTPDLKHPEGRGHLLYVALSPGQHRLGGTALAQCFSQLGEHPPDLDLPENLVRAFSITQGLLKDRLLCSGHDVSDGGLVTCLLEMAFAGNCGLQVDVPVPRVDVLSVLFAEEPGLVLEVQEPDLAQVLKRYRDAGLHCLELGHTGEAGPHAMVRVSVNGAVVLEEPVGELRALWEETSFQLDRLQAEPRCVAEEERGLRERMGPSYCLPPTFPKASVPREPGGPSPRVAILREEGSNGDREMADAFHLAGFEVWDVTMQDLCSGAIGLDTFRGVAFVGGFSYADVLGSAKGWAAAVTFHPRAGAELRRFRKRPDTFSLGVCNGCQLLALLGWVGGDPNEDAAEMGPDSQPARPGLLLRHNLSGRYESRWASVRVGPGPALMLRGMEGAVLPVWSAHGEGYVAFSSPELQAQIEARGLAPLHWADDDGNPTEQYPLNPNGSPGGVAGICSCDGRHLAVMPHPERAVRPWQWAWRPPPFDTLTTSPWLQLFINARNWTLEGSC
UniProt Q9NRD5, whole entry: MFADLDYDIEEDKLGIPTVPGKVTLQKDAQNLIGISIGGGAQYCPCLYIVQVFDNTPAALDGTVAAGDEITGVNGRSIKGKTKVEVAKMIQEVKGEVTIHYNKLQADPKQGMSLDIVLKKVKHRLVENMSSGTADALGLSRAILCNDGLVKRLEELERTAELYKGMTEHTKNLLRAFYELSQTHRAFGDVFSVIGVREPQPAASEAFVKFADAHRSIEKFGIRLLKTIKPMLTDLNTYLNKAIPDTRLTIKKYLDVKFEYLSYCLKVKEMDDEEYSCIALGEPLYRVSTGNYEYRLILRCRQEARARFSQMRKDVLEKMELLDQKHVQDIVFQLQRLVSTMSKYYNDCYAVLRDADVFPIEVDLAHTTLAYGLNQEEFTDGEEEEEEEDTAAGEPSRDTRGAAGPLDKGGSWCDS
UniProt Q9BVI0: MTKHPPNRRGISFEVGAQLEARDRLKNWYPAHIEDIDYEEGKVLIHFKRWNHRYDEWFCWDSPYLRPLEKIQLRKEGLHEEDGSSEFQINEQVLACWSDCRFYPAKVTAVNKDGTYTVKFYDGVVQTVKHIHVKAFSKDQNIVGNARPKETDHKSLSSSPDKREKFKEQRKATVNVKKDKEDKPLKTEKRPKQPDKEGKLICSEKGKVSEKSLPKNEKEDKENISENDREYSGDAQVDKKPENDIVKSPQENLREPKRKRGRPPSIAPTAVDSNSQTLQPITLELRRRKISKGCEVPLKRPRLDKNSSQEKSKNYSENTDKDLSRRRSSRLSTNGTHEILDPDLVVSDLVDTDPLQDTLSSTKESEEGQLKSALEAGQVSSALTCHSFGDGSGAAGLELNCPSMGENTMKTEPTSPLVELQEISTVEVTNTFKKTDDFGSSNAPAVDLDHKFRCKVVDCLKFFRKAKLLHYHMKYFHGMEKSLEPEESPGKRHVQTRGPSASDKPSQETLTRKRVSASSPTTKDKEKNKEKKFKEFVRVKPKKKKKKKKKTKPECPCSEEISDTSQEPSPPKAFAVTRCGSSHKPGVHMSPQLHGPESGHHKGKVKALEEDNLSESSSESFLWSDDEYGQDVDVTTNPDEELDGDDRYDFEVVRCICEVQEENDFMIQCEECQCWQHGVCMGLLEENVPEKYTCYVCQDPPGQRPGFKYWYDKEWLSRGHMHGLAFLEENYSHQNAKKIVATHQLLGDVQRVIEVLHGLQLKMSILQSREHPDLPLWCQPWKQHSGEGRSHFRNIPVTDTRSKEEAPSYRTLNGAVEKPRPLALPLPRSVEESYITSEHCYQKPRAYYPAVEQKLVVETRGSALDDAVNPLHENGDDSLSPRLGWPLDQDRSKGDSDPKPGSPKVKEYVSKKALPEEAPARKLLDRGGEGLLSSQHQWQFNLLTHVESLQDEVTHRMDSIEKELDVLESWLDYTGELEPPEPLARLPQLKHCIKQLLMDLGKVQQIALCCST
UniProt Q8IWS0: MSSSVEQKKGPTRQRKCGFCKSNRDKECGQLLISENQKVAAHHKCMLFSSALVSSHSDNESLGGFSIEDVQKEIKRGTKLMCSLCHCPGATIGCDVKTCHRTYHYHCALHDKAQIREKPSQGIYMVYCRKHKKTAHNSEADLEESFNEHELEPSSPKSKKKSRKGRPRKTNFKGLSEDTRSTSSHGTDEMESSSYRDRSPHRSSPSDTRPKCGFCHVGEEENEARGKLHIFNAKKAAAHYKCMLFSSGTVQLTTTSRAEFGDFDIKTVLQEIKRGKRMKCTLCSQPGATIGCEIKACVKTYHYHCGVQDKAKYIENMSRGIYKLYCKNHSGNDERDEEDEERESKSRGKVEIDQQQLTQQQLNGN
UniProt Q96G03: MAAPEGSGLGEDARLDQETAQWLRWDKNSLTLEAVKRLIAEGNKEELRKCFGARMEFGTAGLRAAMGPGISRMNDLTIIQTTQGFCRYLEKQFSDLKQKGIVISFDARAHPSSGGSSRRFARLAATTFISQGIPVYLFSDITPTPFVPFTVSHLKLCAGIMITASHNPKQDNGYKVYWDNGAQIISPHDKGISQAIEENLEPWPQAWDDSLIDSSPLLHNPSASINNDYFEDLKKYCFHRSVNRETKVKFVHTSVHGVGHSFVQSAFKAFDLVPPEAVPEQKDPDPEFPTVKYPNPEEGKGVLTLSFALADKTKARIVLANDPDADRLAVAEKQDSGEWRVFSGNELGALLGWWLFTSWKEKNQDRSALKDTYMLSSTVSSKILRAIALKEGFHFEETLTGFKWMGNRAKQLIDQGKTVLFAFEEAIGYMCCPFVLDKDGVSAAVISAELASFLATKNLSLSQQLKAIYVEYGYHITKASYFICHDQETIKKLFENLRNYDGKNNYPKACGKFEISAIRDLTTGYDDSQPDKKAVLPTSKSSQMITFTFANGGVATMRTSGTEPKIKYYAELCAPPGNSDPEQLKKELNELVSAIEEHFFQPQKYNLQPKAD
UniProt O75925, whole entry, looked up: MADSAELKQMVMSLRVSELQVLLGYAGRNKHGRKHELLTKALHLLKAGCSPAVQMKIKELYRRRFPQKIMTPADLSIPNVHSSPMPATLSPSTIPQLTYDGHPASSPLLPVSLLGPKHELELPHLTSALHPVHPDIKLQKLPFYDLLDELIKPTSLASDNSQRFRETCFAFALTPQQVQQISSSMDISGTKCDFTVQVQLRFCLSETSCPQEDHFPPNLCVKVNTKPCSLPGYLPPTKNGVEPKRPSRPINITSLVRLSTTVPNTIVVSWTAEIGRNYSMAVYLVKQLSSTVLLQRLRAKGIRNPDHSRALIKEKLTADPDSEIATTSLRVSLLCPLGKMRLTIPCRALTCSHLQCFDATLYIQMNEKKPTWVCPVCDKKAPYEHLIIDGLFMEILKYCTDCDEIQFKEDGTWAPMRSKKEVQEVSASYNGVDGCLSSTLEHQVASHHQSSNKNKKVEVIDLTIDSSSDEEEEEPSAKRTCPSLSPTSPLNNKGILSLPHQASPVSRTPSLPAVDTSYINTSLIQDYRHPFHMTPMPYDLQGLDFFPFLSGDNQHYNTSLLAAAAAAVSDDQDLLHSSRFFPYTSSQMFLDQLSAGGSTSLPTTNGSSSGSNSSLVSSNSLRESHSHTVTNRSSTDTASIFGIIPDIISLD
UniProt Q16875: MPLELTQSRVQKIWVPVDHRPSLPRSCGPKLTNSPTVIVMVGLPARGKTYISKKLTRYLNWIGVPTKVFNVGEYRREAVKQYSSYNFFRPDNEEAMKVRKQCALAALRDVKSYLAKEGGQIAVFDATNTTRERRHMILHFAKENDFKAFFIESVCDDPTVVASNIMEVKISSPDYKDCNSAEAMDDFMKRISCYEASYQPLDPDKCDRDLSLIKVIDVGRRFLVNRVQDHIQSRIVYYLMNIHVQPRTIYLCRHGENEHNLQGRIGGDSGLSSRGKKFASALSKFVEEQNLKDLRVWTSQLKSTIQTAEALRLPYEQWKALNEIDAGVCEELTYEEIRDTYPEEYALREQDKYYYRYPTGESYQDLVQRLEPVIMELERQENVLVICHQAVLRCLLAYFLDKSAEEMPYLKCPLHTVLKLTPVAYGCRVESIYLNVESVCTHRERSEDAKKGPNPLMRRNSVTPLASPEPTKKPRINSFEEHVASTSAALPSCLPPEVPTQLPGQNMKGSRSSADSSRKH

Compound: CC1Cc2ccccc2N1C(=O)C1CCCN(C1)C(=O)CCl (mixture of isomers) [TRIM25 ligand 11 (diastereomer mixture)]
Assay: probe-labelled cysteine peptide fold change vs DMSO (competition) (log2 fold change); higher = less target engagement (more negative = stronger competition)
Conditions: 10 µM; THP-1; incubation time: 4 h
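Also: competitive chemoproteomic profiling in live THP-1 cells with an iodoacetamide desthiobiotin (IA-DTB) probe, comparing probe-labelled peptide intensities in compound-treated cells against DMSO-treated controls.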

Target	probe-labelled cysteine peptide fold change
PHPT1_Q9NRX4_69+71_QGCDCECLGGGR (UniProt Q9NRX4)	-0.0908
PEX14_O75381_342_REDKEDEEDEEDDDVSHVDEEDCLGVQR (UniProt O75381)	0.253
PIAS2_O75928_346_VSLMCPLGK (UniProt O75928)	-0.148
PIGH_Q14442_166_LDCLIEVYR (UniProt Q14442)	0.0428
PGGT1B_P53609_327+338_WPDSHPDALHAYFGICGLSLMEESGICK (UniProt P53609)	0.121
PFAS_O15067_1044_MGPSYCLPPTFPK (UniProt O15067)	-0.0629
PFKP_Q01813_718_KFTTDDSICVLGISK (UniProt Q01813)	-0.0288
PICK1_Q9NRD5_145_AILCNDGLVK (UniProt Q9NRD5)	0.096
PFKP_Q01813_343_MGVEAVIALLEATPDTPACVVSLNGNHAVR (UniProt Q01813)	-0.264
PHF20_Q9BVI0_840_SVEESYITSEHCYQK (UniProt Q9BVI0)	-0.0843
PHF6_Q8IWS0_128_EKPSQGIYMVYCR (UniProt Q8IWS0)	-0.0114
PGK1_P00558_367+379_GCITIIGGGDTATCCAK (UniProt P00558)	0.0105
PGK1_P00558_367+379+380_GCITIIGGGDTATCCAK (UniProt P00558)	0.0728
PGM2_Q96G03_484_ASYFICHDQETIKK (UniProt Q96G03)	0.258
PGP_A6NDG6_193_YLQQPGCLLVGTNMDNR (UniProt A6NDG6)	-0.109
PIAS1_O75925_335_VSLLCPLGK (UniProt O75925)	0.0547
PIK3C2A_O00443_317_STANCHLER (UniProt O00443)	0.0976
PHF6_Q8IWS0_212+215_CGFCHVGEEENEAR (UniProt Q8IWS0)	-0.0628
PFKFB3_Q16875_440_VESIYLNVESVCTHR (UniProt Q16875)	0.295
PHIP_Q8WWQ0_1382_ETLEAGNYESPMELCK (UniProt Q8WWQ0)	0.0362
PFKP_Q01813_360_LPLMECVQMTQDVQK (UniProt Q01813)	-0.0935
PHPT1_Q9NRX4_71+73_QGCDCECLGGGR (UniProt Q9NRX4)	0.197

Same assay, conditions: 50 µM; THP-1; incubation time: 4 h

Target	probe-labelled cysteine peptide fold change
PFN1_P07737_128_KCYEMASHLR (UniProt P07737)	-0.414
PIGA_P37287_348_VGGIPEVLPENLIILCEPSVK (UniProt P37287)	-0.216
PFAS_O15067_871_LGGTALAQCFSQLGEHPPDLDLPENLVR (UniProt O15067)	-0.152
PFKP_Q01813_718_FTTDDSICVLGISKR (UniProt Q01813)	-0.314
PELO_Q9BRX2_204_CILVASPGFVR (UniProt Q9BRX2)	0.146
PGM3_O95394_168_LSQSVIDGVTVLGGQFHDYGLLTTPQLHYMVYCR (UniProt O95394)	-0.079
PHIP_Q8WWQ0_1020_YEVGLPTLCCLK (UniProt Q8WWQ0)	0.19
PFN1_P07737_128_CYEMASHLR (UniProt P07737)	0.0171
PHGDH_O43175_48_QNLSKEELIAELQDCEGLIVR (UniProt O43175)	-0.214
PEX1_O43933_1185_TASQEGCQELTQEQR (UniProt O43933)	-0.227
PHF6_Q8IWS0_82_LMCSLCHCPGATIGCDVK (UniProt Q8IWS0)	0.155
PEX19_P40855_229_ICEQFEAETPTDSETTQK (UniProt P40855)	-0.321
PFAS_O15067_975_DAGLHCLELGHTGEAGPHAMVR (UniProt O15067)	-0.162
PHIP_Q8WWQ0_1692_KLQYAKPEDLEQNNVHPIRDEVLPSSTCNFLSETNNVK (UniProt Q8WWQ0)	-0.102
PGP_A6NDG6_272_TVMVGDRLDTDILLGATCGLK (UniProt A6NDG6)	-0.0353
PHPT1_Q9NRX4_69+71_QGCDCECLGGGR (UniProt Q9NRX4)	-0.216
PEX14_O75381_342_REDKEDEEDEEDDDVSHVDEEDCLGVQR (UniProt O75381)	-0.0283
PIAS2_O75928_346_VSLMCPLGK (UniProt O75928)	0.0304
PIGH_Q14442_166_LDCLIEVYR (UniProt Q14442)	0.0167

Target	probe-labelled cysteine peptide fold change
PGGT1B_P53609_327+338_WPDSHPDALHAYFGICGLSLMEESGICK (UniProt P53609)	0.0766
PFAS_O15067_1044_MGPSYCLPPTFPK (UniProt O15067)	-0.204
PFKP_Q01813_718_KFTTDDSICVLGISK (UniProt Q01813)	-0.00564
PICK1_Q9NRD5_145_AILCNDGLVK (UniProt Q9NRD5)	-0.00768
PFKP_Q01813_343_MGVEAVIALLEATPDTPACVVSLNGNHAVR (UniProt Q01813)	-0.229
PHF20_Q9BVI0_840_SVEESYITSEHCYQK (UniProt Q9BVI0)	-0.0751
PHF6_Q8IWS0_128_EKPSQGIYMVYCR (UniProt Q8IWS0)	-0.0796
PGK1_P00558_367+379_GCITIIGGGDTATCCAK (UniProt P00558)	0.315
PGK1_P00558_367+379+380_GCITIIGGGDTATCCAK (UniProt P00558)	0.208
PGM2_Q96G03_484_ASYFICHDQETIKK (UniProt Q96G03)	0.237
PGP_A6NDG6_193_YLQQPGCLLVGTNMDNR (UniProt A6NDG6)	0.173
PIAS1_O75925_335_VSLLCPLGK (UniProt O75925)	0.0799
PIK3C2A_O00443_317_STANCHLER (UniProt O00443)	-0.144
PHF6_Q8IWS0_212+215_CGFCHVGEEENEAR (UniProt Q8IWS0)	-0.000425
PFKFB3_Q16875_440_VESIYLNVESVCTHR (UniProt Q16875)	0.354
PHIP_Q8WWQ0_1382_ETLEAGNYESPMELCK (UniProt Q8WWQ0)	-0.236
PFKP_Q01813_360_LPLMECVQMTQDVQK (UniProt Q01813)	-0.109
PHPT1_Q9NRX4_71+73_QGCDCECLGGGR (UniProt Q9NRX4)	-0.0507
